Publication PMC3303072 (Cell Biology and Toxicology, 2012)

Assay: in vitro
Settings: human, Cytotoxicity class by LC50

SMILES: CCCCc1oc2ccccc2c1C(=O)c1cc(I)c(OCCN(CC)CC)c(I)c1 [amiodarone]
- CC50: 50 to 100 µM
